Results are given in words; binding and its absence hold for the method and conditions named. Binding seen in cells or lysates may run through a third protein. Some results given as binding are weak or reduced against the parent protein; the word gives no strength.
T1: WRKY25 (Arabidopsis thaliana) (UniProt O22921)
T1 sequence: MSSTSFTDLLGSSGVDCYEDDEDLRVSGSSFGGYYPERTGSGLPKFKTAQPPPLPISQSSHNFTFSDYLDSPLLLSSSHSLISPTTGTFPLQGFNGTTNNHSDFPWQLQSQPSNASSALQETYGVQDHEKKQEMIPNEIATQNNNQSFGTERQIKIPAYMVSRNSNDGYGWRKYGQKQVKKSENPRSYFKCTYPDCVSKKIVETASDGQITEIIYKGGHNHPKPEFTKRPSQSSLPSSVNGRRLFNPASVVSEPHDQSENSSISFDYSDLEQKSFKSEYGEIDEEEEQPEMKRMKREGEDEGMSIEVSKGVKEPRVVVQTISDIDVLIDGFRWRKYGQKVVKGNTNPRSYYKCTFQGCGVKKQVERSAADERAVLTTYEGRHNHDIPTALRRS


How the values were obtained:
[1] = biological target: WRKY53 (Arabidopsis thaliana) (UniProt Q9SUP6); experiment: split reporter; ratiometric BiFC (pBiFCt-2in1-NN) in transiently transformed Arabidopsis protoplasts, overnight incubation in the dark, read by flow cytometry (CytoFLEX)
[2] = biological target: WRKY53 (Arabidopsis thaliana) (UniProt Q9SUP6); experiment: split reporter; BiFC 2in1 (pBiFCt2in1-NN, both partners in one vector, 35S promoter, RFP as internal control) in transiently transformed N. benthamiana leaves; confocal microscopy two days after infiltration; YFP/RFP ratio for each nucleus
[3] = biological target: T1, WRKY25 (Arabidopsis thaliana); experiment: as above
[4] = biological target: WRKY18 (Arabidopsis thaliana), Q9C5T4; experiment: as above; conditions: remark: other sources report otherwise

binding [1] | binding [2] | binding [3] | binding [4] | Binder
binds | binds | binds | – | WRKY53 (protein, UniProt Q9SUP6 1-324) MEGRDMLSWEQKTLLSELINGFDAAKKLQARLREAPSPSSSFSSPATAVAETNEILVKQIVSSYERSLLLLNWSSSPSVQLIPTPVTVVPVANPGSVPESPASINGSPRSEEFADGGGSSESHHRQDYIFNSKKRKMLPKWSEKVRISPERGLEGPQDDVFSWRKYGQKDILGAKFPRSYYRCTHRSTQNCWATKQVQRSDGDATVFEVTYRGTHTCSQAITRTPPLASPEKRQDTRVKPAITQKPKDILESLKSNLTVRTDGLDDGKDVFSFPDTPPFYNYGTINGEFGHVESSPIFDVVDWFNPTVEIDTTFPAFLHESIYY
– | – | – | binds | WRKY53, Q9SUP6 1-324 (protein) MEGRDMLSWEQKTLLSELINGFDAAKKLQARLREAPSPSSSFSSPATAVAETNEILVKQIVSSYERSLLLLNWSSSPSVQLIPTPVTVVPVANPGSVPESPASINGSPRSEEFADGGGSSESHHRQDYIFNSKKRKMLPKWSEKVRISPERGLEGPQDDVFSWRKYGQKDILGAKFPRSYYRCTHRSTQNCWATKQVQRSDGDATVFEVTYRGTHTCSQAITRTPPLASPEKRQDTRVKPAITQKPKDILESLKSNLTVRTDGLDDGKDVFSFPDTPPFYNYGTINGEFGHVESSPIFDVVDWFNPTVEIDTTFPAFLHESIYY

— PMC12307804
